Results published in the supplement of paper PMC12872613.
Structures can show the parent of a compound that is named as a salt. Some of the results follow. Rule as the data show it: active = 0.7 or more and inactive = the rest. Single values are uncertain, as repeats are few or missing.

System: MiaPaCa-2 CLSA-25
Test: cell death relative to DMSO vehicle (fraction); higher = more cytotoxic
Details: 5 µM; treatment time 48 h; medium cystine 25 µM

SMILES | cell death
CCC1=C(C)CN(C(=O)NCCc2ccc(S(=O)(=O)NC(=O)N[C@H]3CC[C@H](C)CC3)cc2)C1=O [Glimepiride] | inactive: -0.0158
COc1cc(CCC(=O)O)ccc1O [Hydroferulic acid] | inactive: 0.0195
COc1ccc2[nH]cc(CCNC(C)=O)c2c1 [Melatonine] | inactive: 0.0482
O=C(Nc1ccccc1-c1cn2c(CN3CCNCC3)csc2n1)c1cnc2ccccc2n1 [SRT1720 hydrochloride] | active: 0.934
OC[C@H]1O[C@@H](c2ccc(F)c(Cc3cc4ccccc4s3)c2)[C@H](O)[C@@H](O)[C@@H]1O [Ipragliflozin] | inactive: 0.158
N[C@@H](CCNCc1ccc(Cl)cc1)C(=O)N1CCCCC1 | inactive: 0.129
CC(=O)NC1CCSC1=O (configuration not stated) [Citiolone] | inactive: 0.123
CC(=O)N[C@H]1CSSC[C@@H](C(N)=O)NC(=O)[C@H](C(C)C)NC(=O)[C@H](C)NC(=O)[C@H](Cc2c[nH]cn2)NC1=O [Exherin trifluoroacetate] | inactive: 0.501
CCCCCCNC(=O)Nc1ccc(S(=O)(=O)Nc2ccc(CCNC[C@H](O)COc3ccc(O)cc3)cc2)cc1 | inactive: 0.554
Cc1ncc(CO)c(CO)c1O [Pyridoxine hydrochloride] | inactive: 0.141
O=C(COCC(=O)N1CCN(C(c2ccccc2)c2ccccc2)CC1)Nc1ccc(Cl)cc1C(=O)O [TM5275 sodium] | inactive: 0.0342
NCCCCN [1,4-Diaminobutane] | inactive: 0.0551
